Results of single-concentration screens

By UniProt entry, the sequences of proteins in these tests, tags left out. Residues count along the entry.
UniProt Q8IDJ8, 1-583: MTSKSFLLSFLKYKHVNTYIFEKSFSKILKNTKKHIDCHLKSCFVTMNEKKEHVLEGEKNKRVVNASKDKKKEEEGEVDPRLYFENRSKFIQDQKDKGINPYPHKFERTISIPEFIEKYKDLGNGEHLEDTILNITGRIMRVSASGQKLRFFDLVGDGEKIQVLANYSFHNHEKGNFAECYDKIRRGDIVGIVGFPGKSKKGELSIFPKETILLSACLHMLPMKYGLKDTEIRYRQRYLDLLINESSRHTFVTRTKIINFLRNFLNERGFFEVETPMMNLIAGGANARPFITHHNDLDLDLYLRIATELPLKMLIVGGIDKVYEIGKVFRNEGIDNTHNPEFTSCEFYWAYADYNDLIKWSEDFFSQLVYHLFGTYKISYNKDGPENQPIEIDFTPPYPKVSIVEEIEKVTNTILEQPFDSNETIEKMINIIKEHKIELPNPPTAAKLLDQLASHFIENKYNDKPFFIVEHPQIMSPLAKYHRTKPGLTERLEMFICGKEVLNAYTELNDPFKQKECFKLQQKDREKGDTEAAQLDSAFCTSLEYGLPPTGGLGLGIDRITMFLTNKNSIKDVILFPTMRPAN
UniProt Q4DA54, 1-478: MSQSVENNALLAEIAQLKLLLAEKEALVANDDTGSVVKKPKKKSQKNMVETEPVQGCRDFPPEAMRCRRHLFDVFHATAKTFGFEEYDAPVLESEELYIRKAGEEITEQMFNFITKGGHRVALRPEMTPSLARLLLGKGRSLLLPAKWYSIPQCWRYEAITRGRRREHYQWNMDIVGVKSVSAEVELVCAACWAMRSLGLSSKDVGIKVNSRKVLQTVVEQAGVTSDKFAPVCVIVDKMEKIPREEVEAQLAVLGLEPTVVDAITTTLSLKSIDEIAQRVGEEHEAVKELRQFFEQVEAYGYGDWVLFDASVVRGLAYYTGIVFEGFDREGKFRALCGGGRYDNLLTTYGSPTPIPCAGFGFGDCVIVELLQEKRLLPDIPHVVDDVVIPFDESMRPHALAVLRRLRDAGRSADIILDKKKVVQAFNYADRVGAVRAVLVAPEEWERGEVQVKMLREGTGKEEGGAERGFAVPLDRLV

A: 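Cell assay of Leishmania donovani living inside macrophages; the read-out is not stated. Tested at 30 µM. The record gives no direction; compounds that gave an IC50 in retests scored well above the rest, so higher reads as stronger inhibition. Size under these conditions: about 69,000 compounds, about 1,000 of them at 50% or above in at least one test.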
B: 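Whole-parasite assay of Trypanosoma brucei over 72 hours; the read-out is not stated. Tested at 30 µM. Direction is inferred from retests: higher values go with stronger inhibition. Values scatter widely below zero; nearly all retest evidence comes from the higher of the two concentrations used. Of about 64,000 compounds tested this way, about 940 (1.5%) reached 50% or more in at least one test.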
C: 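Assay of Toxoplasma gondii numbers, read through their beta-galactosidase reporter with a colour substrate. Compounds at 10 µM. The record gives no direction; the compounds picked for IC50 retests had high values, so higher reads as fewer parasites. Of about 67,000 compounds tested this way, about 260 (0.38%) reached 50% or more in at least one test.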
D: 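Lysine-tRNA ligase, Plasmodium falciparum 3D7 (UniProt Q8IDJ8). Enzyme assay of the cytosolic lysyl-tRNA synthetase in 384-well plates, read by luminescence. Concentration: 30 µM. Direction is inferred from only a few compounds that gave an IC50; most scored high, so higher reads as stronger inhibition. Of about 69,000 compounds tested this way, about 49 (0.071%) reached 50% or more in at least one test.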
E: 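Enzyme assay of histidyl-tRNA synthetase; the read-out is not stated. Target: Histidine-tRNA ligase, Trypanosoma cruzi CL Brener (UniProt Q4DA54). Concentration: 30 µM. Direction is inferred from retests: higher values go with stronger inhibition. Of about 69,000 compounds tested this way, about 31 (0.045%) reached 50% or more in at least one test.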

Results are given as percent effect. The record does not define 0% and 100%; most values in the screen are far below 50% and negative numbers occur (in some assays of this library far below -100). Compounds were drawn at random from those tested, without regard to their results. Two or more numbers in one place are separate tests of the same structure; such repeats can differ widely. A dash means the value is not listed here; it may have been measured.

* O=C(NCC(O)c1ccccc1Cl)c1cccc(-n2cnnn2)c1 (centres unmarked) | A: 18.08%; B: -23.11%; C: -3.941%; D: 1.403%; E: 0.8264%
* COc1cc(C)nc(N2CCN(Cc3nccn3C)CC2)n1 | A: 4.397%; B: 14.26%; C: -6.339%; D: 5.335%; E: 2.439%
* Cc1ccc(F)cc1S(=O)(=O)Nc1ccc2c(C(=O)O)c[nH]c2c1 | A: 3.122%; C: 1.012%; D: 1.729%; E: 6.286%
* [H][C@]12CC[C@]([H])(CN(Cc3cccc(OCc4ccccn4)c3)C1)N(C)C2=O | A: 14.42%; B: -17.81%; C: 3.082%
* COCCN1CCOCC12CCN(c1cnccn1)CC2.O=C(O)C(F)(F)F | A: 41.53%; B: -82.27%; C: 13.62%
* c1ccc(-c2nnc3ccc(N4CCC5(CCOC5)C4)nn23)cc1 (centres unmarked) | A: -7.106%; B: 81.34%; C: 3.346%; D: 6.126%; E: 7.843%
* CCc1nnc2n1CCN(C(=O)c1cnc3ccccc3n1)C2 | A: 10.53%; B: 31.5%; C: -13.38%; D: 5.429%; E: 3.252%
* [H][C@@]12C[C@H](C(=O)N(C)C)[C@@]([H])(CN(C(=O)NCC3CCCCC3)C1)O2 | A: 8.782%; B: -61.59%; C: -7.174%
* O=C([C@@H]1CCO[C@@H]2CCN(Cc3cccnc3)C[C@H]21)N1CCCCO1 | D: 8.548%; E: 0.5464%
* CN(C)CCN1CCOCC2(CCCN(C(=O)c3ccccn3)C2)C1 (centres unmarked) | D: 4.489%; E: 6.863%
* COc1cccc(-c2csc(Cn3ccc(=O)[nH]c3=O)n2)c1 | A: -23.7%; B: -63.1%; C: -1.073%; D: 4.262%; E: 10.78%
* CCc1ccc(CN2CCC3(CC2)NC(=O)CC3c2ccncc2)o1.O=C(O)C(F)(F)F.O=C(O)C(F)(F)F (centres unmarked) | A: 26.07%; B: 8.709%; C: -13.49%
* O=C(NCC1CC1)[C@@H]1CCO[C@@H]2CCN(Cc3ccsc3)C[C@H]21 | D: 6.292%; E: 17.65%
* O=C(c1ccc(=O)[nH]n1)N1CCc2ccccc21 | A: -4.116%; B: 7.746%; C: 4.261%; D: 5.059%; E: 1.935%
* CC(=O)N1CCCC1c1nnn2cc(-c3ccncc3)ccc12 (centres unmarked) | D: 1.858%; E: 1.075%
* CN(C)CCn1c([C@@H]2CCCO2)cc2cccnc21.Cl | A: -17.41%; B: -17.47%; C: 6.202%
* O=C(O)C(F)(F)F.[H][C@@]12CN(Cc3cnn(C)c3)CCO[C@]1([H])CN(S(=O)(=O)CCC)C2 | A: -3.509% & 9.058%; B: -37.63%; C: -4.966%
* O=C(Cc1c[nH]c2ccccc12)NCC1CCN(Cc2c[nH]cn2)C1 (centres unmarked) | A: 23.88%; B: -1.384%; C: -9.014%; D: 1.626%; E: 14.44%
* Cc1ccc(CNC(c2ccccc2)c2nccn2C)cc1.Cl (centres unmarked) | A: -15.51%; C: -3.238%
* COc1ccc(C(CNC(=O)c2c(C)noc2C)N(C)C)cc1 (centres unmarked) | A: 6.932%; C: 4.089%; D: -0.2289%; E: 3.79%
* CC1CN(C)CCN1C(=O)c1cccn1Cc1cccnc1 (centres unmarked) | A: 16.16%; B: -51.01%; C: -29.94%; D: 0.8339%; E: 7.879%
* COc1cccc2c1N(Cc1nc(C3CC3)no1)CCC2 | A: -3.125%; B: -60.31%; C: -2.21%; D: 3.826%; E: 9.804%
* Cc1nn(CC(=O)O)c(C)c1NS(=O)(=O)c1cccc2ccccc12 | A: -2.404%; B: -9.75%; C: 6.07%; D: 0.9189%; E: 10.89%
* COCC1CN(S(C)(=O)=O)Cc2ncn(CC3CC3)c21 (centres unmarked) | A: 2.24%; B: -48.49%; C: 2.499%; D: 3.835%; E: 0.8475%
* Cc1cc(=O)n2c3c(cc(S(=O)(=O)NC4CC4)cc13)CCC2 | A: -13.22%; B: -22.2%; C: 88.28%; D: -6.9%; E: -3.478%
* Cc1cc(-c2cnc(N3CCN(C)CC3)nc2C(C)C)on1 | A: -0.479%; B: 40.32%; C: 16.83%; D: 1.376%; E: 2.26%
* CN1CCN(C(=O)N2C[C@H]3CC[C@@H]2CN(Cc2ccccc2)C3)CC1 | D: 3.289%; E: 3.665%
* CCC(=O)CNC(=O)CCn1nc2ccccn2c1=O | A: 4.782%; B: -28.56%; C: 1.953%; D: -2.364%; E: 0.5435%
* O=C(c1cscn1)N1C[C@@H](Oc2cccnc2)[C@H]2OCCC[C@H]21 | D: 0.0851%; E: 2.404%

Once more, the final 2:

SMILES	A	B	C	D	E
CCC(=O)CNC(=O)CCn1nc2ccccn2c1=O	4.782%	-28.56%	1.953%	-2.364%	0.5435%
O=C(c1cscn1)N1C[C@@H](Oc2cccnc2)[C@H]2OCCC[C@H]21	-	-	-	0.0851%	2.404%

From ChEMBL document CHEMBL3988442, “University of Dundee, Small-Polar-MMV Screening Library” (2021).